Values quoted from earlier work, collected in patent US11913031B2, “Method to reproduce circadian rhythms on a microfluidic chip” (Yissum Research Development Company of the Hebrew …, priority 2017, dated 2024).

Tested on: liver
Conditions: Table 4 compound list, toxicological end-point; cited from earlier work

## CCCCc1oc2ccccc2c1C(=O)c1cc(I)c(OCCN(CC)CC)c(I)c1 [Amiodarone]
  Toxicity: Steatosis
